{"source": "PubChem BioAssay AID1259291 | Sanger Institute – 2017", "purpose": "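Genes needed for HT29 colorectal cancer cell survival or for sensitivity to drugs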 (primary screen)", "cell system": "HT29 human colorectal cancer cells", "reagents": "siRNA pool against human genes", "conditions": "anchor drugs added a day after transfection: BYL719 at 1 µM, cetuximab at 5 µg/ml or trametinib at 10 nM, or DMSO vehicle alone", "measured": "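Replicate-averaged viability relative to non-targeting pool, robust z-score based on control wells, plus per-drug synergy score for 1 µM BYL719, 5 µg/ml cetuximab and 10 nM trametinib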", "direction": "robust z-score, knock-down alone and viability, knock-down alone: higher = more viable cells", "units": "viability, knock-down alone in fraction of control", "hit rule": "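Essential when the robust z-score for knock-down without any drug is below -3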", "meaning of the calls": "active = essential (knock-down alone); inactive = no change alone", "note": "Shown is one part, drawn at random, of 794 reagents. In the full data, 15 (1.9%) are marked active. 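Calls rest on knock-down alone; drug synergy scores do not affect them; drugs added a day post-transfection, DMSO vehicle as comparison.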 A number with no mark means an inactive call. No viability above 1 is reported: the scale is capped. Not all columns of the deposit are shown. Not given: the amount of reagent, the time to read-out."}
{"target": "UCK2 (uridine-cytidine kinase 2)", "robust z-score, knock-down alone": 0.355, "viability, knock-down alone": 0.988}
{"target": "PKIB (cAMP-dependent protein kinase inhibitor beta)", "robust z-score, knock-down alone": -0.534, "viability, knock-down alone": 0.933}
{"target": "PASK (PAS domain containing serine/threonine kinase)", "robust z-score, knock-down alone": 0.552, "viability, knock-down alone": 1}
{"target": "ITPKA (inositol-trisphosphate 3-kinase A)", "robust z-score, knock-down alone": 0.552, "viability, knock-down alone": 1}
{"target": "KALRN (kalirin RhoGEF kinase)", "robust z-score, knock-down alone": "-3.02 (active)", "viability, knock-down alone": 0.779}
{"target": "FN3K (fructosamine 3 kinase)", "robust z-score, knock-down alone": 0.552, "viability, knock-down alone": 1}
{"target": "FLT3 (fms related receptor tyrosine kinase 3)", "robust z-score, knock-down alone": -0.287, "viability, knock-down alone": 0.948}
{"target": "AXL (AXL receptor tyrosine kinase)", "robust z-score, knock-down alone": 0.535, "viability, knock-down alone": 0.999}
{"target": "BCOR (BCL6 corepressor)", "robust z-score, knock-down alone": 0.376, "viability, knock-down alone": 0.989}
{"target": "NRK (Nik related kinase)", "robust z-score, knock-down alone": 0.205, "viability, knock-down alone": 0.978}
{"target": "STK16 (serine/threonine kinase 16)", "robust z-score, knock-down alone": 0.153, "viability, knock-down alone": 0.975}

Continued, starting with the last 2 of the part before.
{"target": "NRK (Nik related kinase)", "robust z-score, knock-down alone": 0.205, "viability, knock-down alone": 0.978}
{"target": "STK16 (serine/threonine kinase 16)", "robust z-score, knock-down alone": 0.153, "viability, knock-down alone": 0.975}
{"target": "TESK2 (testis associated actin remodelling kinase 2)", "robust z-score, knock-down alone": 0.552, "viability, knock-down alone": 1}
{"target": "INSRR (insulin receptor related receptor)", "robust z-score, knock-down alone": 0.552, "viability, knock-down alone": 1}
{"target": "ITPK1 (inositol-tetrakisphosphate 1-kinase)", "robust z-score, knock-down alone": 0.552, "viability, knock-down alone": 1}
{"target": "PTPRU (protein tyrosine phosphatase receptor type U)", "robust z-score, knock-down alone": -0.582, "viability, knock-down alone": 0.93}
{"target": "ACVR1 (activin A receptor type 1)", "robust z-score, knock-down alone": 0.552, "viability, knock-down alone": 1}
{"target": "MAST4", "robust z-score, knock-down alone": 0.552, "viability, knock-down alone": 1}
{"target": "TRPM6", "robust z-score, knock-down alone": 0.552, "viability, knock-down alone": 1}
{"target": "HUS1 (HUS1 checkpoint clamp component)", "robust z-score, knock-down alone": 0.551, "viability, knock-down alone": 1}
